Source: paper PMC6716272 (Frontiers in Pharmacology, 2019)

Experiment: peptide synthesis
Settings: late stage modification step

(S)-1-((S)-4-amino-2-((3S,4S)-4-((S)-1-((S)-1-carboxy-4-guanidinobutylamino)-1-oxo-propan-2-ylcarbamoyl)pyrrolidine-3-carboxamido)-4-oxobutanoyl)pyrrolidine-2-carboxylic acid
step yield (run 1): 67% | step yield (run 2): 71%
